Assay results as given in paper PMC9209722.
No constants are given. Whether binding was seen depends on the method and setting. Binding seen in cells or lysates may run through a third protein. Some results given as binding are weak or reduced against the parent protein; the word gives no strength. Sequences can lack the tags named with a protein.

Protein sequences, listed by entry. Tags and fused reporters are not part of them.
UniProt P23804: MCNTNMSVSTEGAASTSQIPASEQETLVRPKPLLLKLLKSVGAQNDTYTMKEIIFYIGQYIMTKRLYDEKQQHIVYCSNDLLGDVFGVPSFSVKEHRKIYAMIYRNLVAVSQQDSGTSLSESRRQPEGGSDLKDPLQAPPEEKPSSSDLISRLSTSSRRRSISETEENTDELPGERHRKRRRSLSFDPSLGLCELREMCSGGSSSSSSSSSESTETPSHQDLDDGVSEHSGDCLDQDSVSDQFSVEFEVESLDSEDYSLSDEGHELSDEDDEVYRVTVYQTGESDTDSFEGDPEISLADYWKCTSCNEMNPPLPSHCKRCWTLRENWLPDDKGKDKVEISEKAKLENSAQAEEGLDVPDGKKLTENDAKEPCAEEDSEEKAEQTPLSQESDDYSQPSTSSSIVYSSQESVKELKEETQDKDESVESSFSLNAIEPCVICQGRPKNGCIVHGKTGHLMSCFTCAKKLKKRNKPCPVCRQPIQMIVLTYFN

Target: Murine double minute 2 (MDM2), Flag-tagged mouse MDM2 (mouse) (UniProt P23804)
Assay: co-IP; 293T cells transfected with the indicated constructs, treated with palmitic acid (0.4 mM) for 24 h, lysed; immunoprecipitation with Flag-tagged or Myc-tagged magnetic beads at 4°C overnight; Western blotting

B1: Six-transmembrane epithelial antigen of prostate 4 (STEAP4), tagged mouse STEAP4 (protein, UniProt Q923B6 1-470)
chain: MEKAHADEFPLTTDSSEKQGVVCIFGTGDFGKSLGLKMLQCGYSIVFGSRNPQVSSLLPRGAEVLSYSEAASKSDIIILAMHREHYDSLTELVDYLKGKVLVDVSNNRKINQYPESNAEYLAQLEPGAHVVKAFNTISAWALQSGTLDASRQVFVCGNDSKAKQRVMDIARTLGLTPLDQGSLMAASEIENYPLQLFPMWRFPFYLSSVLCVFFFVYCAIREVIYPYVNGKTDATYRLAISIPNRVFPITALILLALVYLPGILAAILQLYRGTKYRRFPNWLDHWMLCRKQLGLVALGFAFLHVIYTLVIPIRYYVRWRLRNATITQALTNKDSPFITSYAWINDSYLALGILGFFLFLLLGITSLPSVSNMVNWREFRFVQSKLGYLTLVLCTAHTLVYGGKRFLSPSILRWSLPSAYILALVIPCAVLVLKCILIMPCIDKTLTRIRQGWERNSKYTQSALNGKSDI
In the case of B1, the binding is reported as “binds”.
